The values that follow come from PubChem BioAssay AID216 (DTP/NCI, 2004).

Molecules are shown by their SMILES. The list does not hold the whole screen: it gathers tests that were run many times, whatever their T/C, doses with no T/C, and many T/C values between a quarter and a half above the control. Other doses and runs of a compound stand elsewhere. T/C is the treated group as % of the vehicle group. Some entries give survivors of the animals treated and no T/C: the source files T/C as zero there, which appears to mark a toxic dose or a test without result, not a measured value. Some survivor counts are full or nearly so, which does not show that the dose was tolerated: survival well below the control is almost never listed, so the zero probably covers shortened survival too. Survivors were counted at the toxicity check, usually on the fifth day, unless a day is given; later deaths do not show. Schedule codes are those of the source, taken here to give the interval after Q, in days (D) or hours (H), and the number of doses after X. Some entries were tested several times; the results are listed from low to high. Some schedules carry Z or #; the key to these is not given. For survival time, the PubChem record calls one and a half times the control and up active, and a quarter to a half above the control has no call in these data; cut-offs in other NCI protocols can differ. Additions like (4×) give the number of equal values in this list. Some T/C values carry the count of animals alive at the toxicity check (mostly the fifth day); without a count, all were alive then.

The subject of the test is BDF1 mice, P288 leukemia ip, survival T/C. Description: NCI In Vivo Anticancer Drug Screen. Data for tumor model P288 Lymphocytic Leukemia (intraperitoneal) in B6D2F1 (BDF1) mice. The following applies: T/C endpoint: survival time, mean or median, higher T/C = longer survival. On the procedure: The antitumor activity of compounds was measured in mice bearing transplantable tumors. Survival or tumor size were measured and the results are expressed as the measurement made in the treated group (T) divided by the measurement made in the vehicle treated control group (C). The tumor model used in this assay is P288 Lymphocytic Leukemia (intraperitoneal) in B6D2F1 (BDF1) mice

Where [1] appears, read: dose: 25.0 mg/kg/injection, schedule: Q01DX010 (ip), vehicle: saline.
The mark [2] stands for this setting: dose: 100.0 mg/kg/injection, schedule: Q01DX Z (ip), vehicle: carboxymethylcellulose (CMC).
Setting [3] is: dose: 62.5 mg/kg/injection, schedule: Q01DX010 (ip), vehicle: saline.
[4] abbreviates: dose: 125.0 mg/kg/injection, schedule: Q01DX010 (ip), vehicle: saline.
[5] abbreviates: dose: 250.0 mg/kg/injection, schedule: Q01DX010 (ip), vehicle: saline.

Turning to `O[C@H](CN1CC1)[C@@H](O)CN1CC1`, the T/C is 131 % of control (dose: 16.0 micrograms/kg/injection, schedule: Q01DX Z (ip), vehicle: carboxymethylcellulose (CMC)); 131 % of control (dose: 63.0 micrograms/kg/injection, schedule: Q01DX Z (ip), vehicle: carboxymethylcellulose (CMC)); 141 % of control (dose: 125.0 micrograms/kg/injection, schedule: Q01DX Z (ip), vehicle: carboxymethylcellulose (CMC)); 130 % of control (dose: 1000.0 micrograms/kg/injection, schedule: Q01DX Z (ip), vehicle: carboxymethylcellulose (CMC)). For the same compound, the survivor count is, setting by setting: (dose: 2000.0 micrograms/kg/injection, schedule: Q01DX Z (ip), vehicle: carboxymethylcellulose (CMC)) 6 of 6; (dose: 4000.0 micrograms/kg/injection, schedule: Q01DX Z (ip), vehicle: carboxymethylcellulose (CMC)) 0 of 6.

Regarding `O=C(O)CCCc1ccc(N(CCCl)CCCl)cc1`, the survivor count was 6 of 6 (dose: 6.25 mg/kg/injection, schedule: Q01DX010 (ip), vehicle: saline); 6 of 6 (dose: 12.5 mg/kg/injection, schedule: Q01DX010 (ip), vehicle: saline); 6 of 6 (dose: 12.5 mg/kg/injection, schedule: Q01DX Z (ip), vehicle: carboxymethylcellulose (CMC)); 0 of 6 and 4 of 6 under setting [1]; 5 of 6 (dose: 50.0 mg/kg/injection, schedule: Q01DX Z (ip), vehicle: carboxymethylcellulose (CMC)). The T/C (dose: 6.25 mg/kg/injection, schedule: Q01DX Z (ip), vehicle: carboxymethylcellulose (CMC)) was 125 % of control.

For the compound `O=c1cnn(C2OC(CO)C(O)C2O)c(=O)[nH]1` (configuration not stated), the T/C by setting is: (dose: 400.0 mg/kg/injection, schedule: Q01DX010 (ip), vehicle: saline) 127 % of control; (dose: 800.0 mg/kg/injection, schedule: Q01DX010 (ip), vehicle: saline) 125 % of control [5 of 6 alive].

For the compound `Oc1cc(CN(CCCl)CCCl)c(O)cc1CN(CCCl)CCCl`, the survivor count (dose: 2.5 mg/kg/injection, schedule: Q01DX010 (ip), vehicle: saline) was 3 of 6; the survivor count (dose: 7.5 mg/kg/injection, schedule: Q01DX Z (sc), vehicle: steroid suspending solution) is listed as 5 of 6; the survivor count (dose: 15.0 mg/kg/injection, schedule: Q01DX Z (sc), vehicle: steroid suspending solution) was 6 of 6.

On to `Clc1ccc(C(c2ccccc2Cl)C(Cl)Cl)cc1` (configuration not stated), for which the survivor count is given as 40 of 60 (dose: 50.0 mg/kg/injection, schedule: Q01DX Z (sc), vehicle: steroid suspending solution) and 4 of 6 (dose: 100.0 mg/kg/injection, schedule: Q01DX Z (sc), vehicle: steroid suspending solution).

As for `O=C(Nc1ccc(C2=NCCN2)cc1)c1ccc(C(=O)Nc2ccc(C3=NCCN3)cc2)cc1`, the T/C runs as follows: (dose: 4.0 mg/kg/injection, schedule: Q01DX010 (ip), vehicle: other) 133 and 140 % of control; (dose: 16.0 mg/kg/injection, schedule: Q01DX010 (ip), vehicle: other) 136 % of control [5 of 6 alive]; (dose: 32.0 mg/kg/injection, schedule: Q01DX010 (ip), vehicle: other) 132 % of control; under setting [2], 133 % of control. Also, the survivor count (dose: 400.0 mg/kg/injection, schedule: Q01DX Z (ip), vehicle: carboxymethylcellulose (CMC)) is listed as 2 of 6.

In the case of `CC(=O)N(C)C`, the survivor count (dose: 62.0 mg/kg/injection, schedule: Q01DX Z (ip), vehicle: saline) is 6 of 6; the survivor count under setting [3] is 6 of 6; the survivor count under setting [4] is 5 of 6 and 6 of 6; the survivor count under setting [5] is listed as 6 of 6; the survivor count (dose: 1000.0 mg/kg/injection, schedule: Q01DX Z (ip), vehicle: saline) is given as 6 of 6. For the same compound, the T/C is 105 % of control under setting [3]; 88 % of control under setting [4]; 88 and 94 % of control (2×) under setting [5]; 90, 94, 100, 105 % of control (dose: 500.0 mg/kg/injection, schedule: Q01DX010 (ip), vehicle: saline).

With `Cc1cc(N(CCCl)CCCl)ccc1N=Nc1ccccc1C(=O)O`, the survivor count is recorded as 6 of 6 (dose: 7.5 mg/kg/injection, schedule: Q01DX Z (ip), vehicle: carboxymethylcellulose (CMC)); 6 of 6 (dose: 15.0 mg/kg/injection, schedule: Q01DX Z (ip), vehicle: carboxymethylcellulose (CMC)); 6 of 6 (dose: 30.0 mg/kg/injection, schedule: Q01DX Z (ip), vehicle: carboxymethylcellulose (CMC)); 6 of 6 (dose: 40.0 mg/kg/injection, schedule: Q01DX010 (ip), vehicle: saline); 6 of 6 (dose: 60.0 mg/kg/injection, schedule: Q01DX Z (ip), vehicle: carboxymethylcellulose (CMC)).

For the compound `CCOC(=O)c1[nH]c2ccccc2c1CN(CCCl)CCCl`, the survivor count runs as follows: (dose: 10.0 mg/kg/injection, schedule: Q01DX010 (ip), vehicle: saline) 6 of 6; (dose: 80.0 mg/kg/injection, schedule: Q01DX010 (ip), vehicle: saline) 1 of 6.

With `CSc1ncnc2nc[nH]c12`, the survivor count by setting is: under setting [1], 6 of 6; (dose: 25.0 mg/kg/injection, schedule: Q01DX Z (ip), vehicle: carboxymethylcellulose (CMC)) 6 of 6; (dose: 50.0 mg/kg/injection, schedule: Q01DX010 (ip), vehicle: saline) 6 of 6; (dose: 100.0 mg/kg/injection, schedule: Q01DX010 (ip), vehicle: saline) 6 of 6; under setting [2], 6 of 6; (dose: 200.0 mg/kg/injection, schedule: Q01DX010 (ip), vehicle: saline) 6 of 6. The survivor count (dose: 200.0 mg/kg/injection, schedule: Q01DX Z (ip), vehicle: carboxymethylcellulose (CMC)) is 6 of 6.

For the compound `CC/C(=C(/CC)c1ccc(O)cc1)c1ccc(O)cc1`, the T/C by setting is: (dose: 12.5 mg/kg/injection, schedule: Q01DX010 (sc), vehicle: steroid suspending solution) 142 % of control; (dose: 25.0 mg/kg/injection, schedule: Q01DX010 (sc), vehicle: steroid suspending solution) 128 % of control. In addition, the survivor count is 3 of 6 and 5 of 6 (dose: 125.0 mg/kg/injection, schedule: Q01DX Z (sc), vehicle: steroid suspending solution); 1 of 6 and 5 of 6 (dose: 250.0 mg/kg/injection, schedule: Q01DX Z (sc), vehicle: steroid suspending solution); 1 of 6 (dose: 500.0 mg/kg/injection, schedule: Q01DX Z (sc), vehicle: steroid suspending solution).
